Assay results from article PMC6385475.
No constants are given. Whether binding was seen depends on the method and setting. In cells and extracts the contact can be indirect. Some entries that bind do so weakly or less than the wild type.

Sequences of proteins named here, by UniProt entry; tags and fusion partners are left off.
UniProt P01106: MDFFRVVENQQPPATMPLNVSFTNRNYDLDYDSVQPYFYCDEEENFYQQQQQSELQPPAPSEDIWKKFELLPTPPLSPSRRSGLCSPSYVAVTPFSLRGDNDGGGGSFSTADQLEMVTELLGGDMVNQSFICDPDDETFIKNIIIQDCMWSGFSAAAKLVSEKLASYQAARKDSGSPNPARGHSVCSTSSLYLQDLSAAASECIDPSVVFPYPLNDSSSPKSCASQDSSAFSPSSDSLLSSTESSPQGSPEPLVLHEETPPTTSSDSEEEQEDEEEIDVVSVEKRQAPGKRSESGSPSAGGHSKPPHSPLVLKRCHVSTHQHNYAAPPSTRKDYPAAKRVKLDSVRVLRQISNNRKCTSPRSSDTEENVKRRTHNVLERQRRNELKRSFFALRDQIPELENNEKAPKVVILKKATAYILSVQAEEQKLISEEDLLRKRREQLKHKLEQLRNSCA

Target: T1, Lysophosphatidylcholine acyltransferase 1 (human (endogenous in HCC827)) (UniProt Q8NF37)
T1 sequence: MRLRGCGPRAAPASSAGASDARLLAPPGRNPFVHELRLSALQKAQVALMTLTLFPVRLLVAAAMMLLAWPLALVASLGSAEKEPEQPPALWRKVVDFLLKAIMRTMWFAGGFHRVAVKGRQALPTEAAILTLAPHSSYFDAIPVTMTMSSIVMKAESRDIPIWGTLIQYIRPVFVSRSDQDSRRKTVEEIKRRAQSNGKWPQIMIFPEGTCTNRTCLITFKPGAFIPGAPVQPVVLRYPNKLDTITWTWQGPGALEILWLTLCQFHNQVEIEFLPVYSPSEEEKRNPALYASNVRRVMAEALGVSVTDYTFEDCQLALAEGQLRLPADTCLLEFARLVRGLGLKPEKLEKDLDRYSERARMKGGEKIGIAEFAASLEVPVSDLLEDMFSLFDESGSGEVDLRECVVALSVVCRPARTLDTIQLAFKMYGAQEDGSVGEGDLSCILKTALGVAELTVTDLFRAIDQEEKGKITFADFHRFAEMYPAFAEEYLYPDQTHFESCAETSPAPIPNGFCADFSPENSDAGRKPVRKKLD
Experiment: co-IP; endogenous proteins in HCC827 lysate (IP lysis buffer); lysates incubated with anti-LPCAT1 and anti-MYC antibodies separately overnight at 4 °C, protein A/G-agarose beads, washed three times with lysis buffer, western blotting

binding: binds
Substance: MYC (from UniProt P01106 1-454)
